PubChem BioAssay AID1508597 | Cure First | 2020
Aim: 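Genes whose silencing sensitises or protects ovarian cancer cells against rucaparib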 (primary screen). System: human ovarian carcinoma lines grown from tumours: OCI-P5x (papillary serous) and OCI-C5x (clear cell). Knock-down reagent: siRNA pool against human genes, 1.25 pmol siRNA per well. Duration: 72 h or 96 h, depending on the cell culture. Challenge: rucaparib 20 µM (about IC30) or vehicle, present until read-out. Rucaparib or vehicle: Rucaparib. Cell line: OCI-C5x (clear cell). Measured: 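Luminescent ATP-based viability assay read 72 or 96 h after transfection, depending on culture, given as normalised percent viability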. Scale: viability, normalised: higher = more viable cells remaining. Rule for the call: 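a well counts as a hit if its normalised viability is under 80 percent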. Meaning of the calls: active = viability under 80%; inactive = viability 80% or more.
Shown is an unselected part of the about 2,100 reagents, under one of the conditions tested. 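Calls flag viability under 80% in either arm, not effects specific to rucaparib; the reference for percent is not stated.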 Some reagents were tested in more than one well and are listed for each. The record does not give: the 100% reference.

| Target gene | PubChem SID | technical replicate | viability, normalised (%) | Call |
| --- | --- | --- | --- | --- |
| CDK20 | SID405527773 | 1 | 42.3 | active |
| CDK20 | SID405527773 | 2 | 49.3 | active |
| CDK20 | SID405527773 | 3 | 56.9 | active |
| TCF3 | SID405526539 | 1 | 48.3 | active |
| TCF3 | SID405526539 | 2 | 49.6 | active |
| TCF3 | SID405526539 | 3 | 32.9 | active |
| CHD7 | SID405528106 | 1 | 60.6 | active |
| CHD7 | SID405528106 | 2 | 41.8 | active |
| CHD7 | SID405528106 | 3 | 33.3 | active |
| AKAP13 | SID405527808 | 1 | 66.4 | active |
| AKAP13 | SID405527808 | 2 | 48.6 | active |
| AKAP13 | SID405527808 | 3 | 62.2 | active |
| TSSK1A | SID405527751 | 1 | 73.2 | active |
| TSSK1A | SID405527751 | 2 | 68.9 | active |
| TSSK1A | SID405527751 | 3 | 85.6 | inactive |
| SSBP1 | SID405528402 | 1 | 70.1 | active |
| SSBP1 | SID405528402 | 2 | 61 | active |
| SSBP1 | SID405528402 | 3 | 80.4 | inactive |
| MARK1 | SID405527665 | 1 | 48.9 | active |
| MARK1 | SID405527665 | 2 | 61.9 | active |
| MARK1 | SID405527665 | 3 | 44 | active |
| ASF1A | SID405527988 | 1 | 56.7 | active |
| ASF1A | SID405527988 | 2 | 64.4 | active |
| ASF1A | SID405527988 | 3 | 40.9 | active |
| CXXC1 | SID405526385 | 1 | 26.8 | active |
| CXXC1 | SID405526385 | 1 | 46 | active |
| CXXC1 | SID405526385 | 2 | 56.6 | active |
| CXXC1 | SID405526385 | 2 | 27.4 | active |
| CXXC1 | SID405526385 | 3 | 65 | active |
| CXXC1 | SID405526385 | 3 | 28.7 | active |
| PRDM12 | SID405527182 | 1 | 51.2 | active |
| PRDM12 | SID405527182 | 2 | 48.2 | active |
| PRDM12 | SID405527182 | 3 | 41.8 | active |

Continued; the last 3 above are carried over.
| Target gene | PubChem SID | technical replicate | viability, normalised (%) | Call |
| --- | --- | --- | --- | --- |
| PRDM12 | SID405527182 | 1 | 51.2 | active |
| PRDM12 | SID405527182 | 2 | 48.2 | active |
| PRDM12 | SID405527182 | 3 | 41.8 | active |
| PDE4B | SID405526690 | 1 | 78.2 | active |
| PDE4B | SID405526690 | 2 | 72 | active |
| PDE4B | SID405526690 | 3 | 63.5 | active |
| EIF2AK1 | SID405527663 | 1 | 48.7 | active |
| EIF2AK1 | SID405527663 | 2 | 50.3 | active |
| EIF2AK1 | SID405527663 | 3 | 67.9 | active |
| MKNK2 | SID405528595 | 1 | 69 | active |
| MKNK2 | SID405528595 | 2 | 63.7 | active |
| MKNK2 | SID405528595 | 3 | 70.2 | active |
| MAPK1 | SID405527479 | 1 | 49.8 | active |
| MAPK1 | SID405527479 | 2 | 51.9 | active |
| MAPK1 | SID405527479 | 3 | 45.2 | active |
| NCOA5 | SID405526316 | 1 | 65.2 | active |
| NCOA5 | SID405526316 | 2 | 53.6 | active |
| NCOA5 | SID405526316 | 3 | 68.6 | active |
| KCTD13 | SID405528462 | 1 | 67.2 | active |
| KCTD13 | SID405528462 | 2 | 62.1 | active |
| KCTD13 | SID405528462 | 3 | 64.6 | active |
| MRI1 | SID405526370 | 1 | 69 | active |
| MRI1 | SID405526370 | 2 | 62.8 | active |
| MRI1 | SID405526370 | 3 | 68.4 | active |
| ITGA4 | SID405526909 | 1 | 36.6 | active |
| ITGA4 | SID405526909 | 2 | 34.8 | active |
| ITGA4 | SID405526909 | 3 | 36.2 | active |
